Test results published in patent US20120219567A1 (Biogen, published 2012).
These are yes or no findings as the source states them, for the method shown. Some results given as binding are weak or reduced against the parent protein; the word gives no strength. Sequences can lack the tags named with a protein.

Sequences of proteins named here, by UniProt entry; tags and fusion partners are left off. Residues count along the entry.
UniProt Q9NQC3, residues 1055-1087: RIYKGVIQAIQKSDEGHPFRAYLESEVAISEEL

Molecular target: T1, human NgR(310)ecto-Fc (human) (UniProt Q9BZR6)
T1 sequence: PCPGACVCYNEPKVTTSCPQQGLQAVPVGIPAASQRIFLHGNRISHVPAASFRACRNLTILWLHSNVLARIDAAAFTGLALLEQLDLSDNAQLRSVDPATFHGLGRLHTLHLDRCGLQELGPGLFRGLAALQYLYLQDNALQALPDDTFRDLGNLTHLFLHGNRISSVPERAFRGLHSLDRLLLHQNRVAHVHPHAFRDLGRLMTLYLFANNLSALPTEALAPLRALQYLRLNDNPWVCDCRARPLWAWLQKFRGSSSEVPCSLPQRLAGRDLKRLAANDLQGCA
Assay: AP-ligand binding to wells coated with NgR(310)ecto-Fc, ELISA format

binding: binds
Substance: AP-Nogo-66(1-33) (from UniProt Q9NQC3 1055-1087) (ligand)
